# Data published in patent publication US12590134B2 (Sinopep-Allsino Biopharmaceutical Co., Ltd., priority 2020, dated 2026).
# Test: general procedure: Fmoc solid-phase peptide synthesis; Fmoc-Gly-Wang resin
# Details: whole synthesis, 214 nm
substance,measurement,value
HX2EGTFTSDVSSYLEX2QAAK(HOOC-(CH2)16-CO-γ-Glu-AEEA-AEEA)EFIAWLVRGRG,final HPLC purity,larger than 98.0%
